Source: patent publication US4618678A, “4-(2,3-dichloro-6-fluorophenyl)-1,4,5,6,7,8-hexahyd ro-2-methyl-5-oxo-1,7-naphthyridine-3-carboxylic acid 2-(2,3-dichlorophenoxy)ethyl ester” (American Home Products Corporation, priority 1985, dated 1986)
At least one compound was matched to its structure with a doubt left.

Tested on: Ca^+2 -calmodulin dependent myosin light chain phosphorylation
Assay: Inhibition of Ca+2-calmodulin dependent myosin light chain phosphorylation (MLCP)
Assay type: biochemical
Procedure: The data reported herein was obtained at a six minute time-point rather than the 1.5, 5 and 12 minute time points indicated in the superprecipitation assay of the Silver et al. paper.
The following examples illustrate the preparation of a representative number of compounds of this invention. After each example, the Ca^+2 antagonist activity of the compound is presented in terms of percent relaxation of aortic tissue (P.R.) at 10^-5 M concentration. […] Inhibition of superprecipitation (Antag. of Actin-Myosin interaction) is expressed as percent inhibition (mean±standard error of the mean for at least 3 separate experiments) at a compound concentration. In the same manner, inhibition of myosin light chain phosphorylation (Antag. of MLCP) is expressed as a percent inhibition at a compound concentration. Similarly, the antihypertensive activity is reported in terms of millimeters mercury (mmHg) systolic blood pressure (B.P.) reduction at the stated time post 50 mg/kg oral dosing or other dosing as indicated.

## CC1=C(C(=O)OCCOc2cccc(Cl)c2Cl)C(c2c(F)ccc(Cl)c2Cl)C2=C(CNCC2=O)N1 (stereo not shown) [Example 25, 4-(2,3-dichloro-6-fluorophenyl)-1,4,5,6,7,8-hexahydro-2-methyl-5-oxo-1,7-naphthyridine-3-carboxylic acid 2-(2,3-dichlorophenoxy)ethyl ester]
10 μM
  Antag. of MLCP (percent inhibition of myosin light chain phosphorylation): 32±8%
25 μM
  Antag. of MLCP (percent inhibition of myosin light chain phosphorylation): 48±3%
50 μM
  Antag. of MLCP (percent inhibition of myosin light chain phosphorylation): 60±4%
100 μM
  Antag. of MLCP (percent inhibition of myosin light chain phosphorylation): 67±2.3%
